Experimental data as given in PubChem BioAssay AID624246 (National Center for Advancing Translational Sciences (NCATS), 2012).
Screen size: about 370,000 compounds; about 100 (0.027%) were called active. The inconclusive results got no clear call from the source; some entries with a clear call stand among them for comparison. The call rests on the fitted dose curve; in most records, active means well fitted inhibition curve with a large enough effect in the polarisation, with a control signal flat; inconclusive means small, poorly fitted or top-dose-only effect, or effect the other way, or a change in a side signal; inactive means no such curve, though single readings can be large or run the other way; the % refers to the polarisation. Where the call is inconclusive, the potency comes from a doubtful curve fit. A note “side channel” means that the fit belongs to a control or component signal, not to the main read-out.

Protein sequences, listed by entry. Tags and fused reporters are not part of them.
UniProt P11308, whole entry, looked up: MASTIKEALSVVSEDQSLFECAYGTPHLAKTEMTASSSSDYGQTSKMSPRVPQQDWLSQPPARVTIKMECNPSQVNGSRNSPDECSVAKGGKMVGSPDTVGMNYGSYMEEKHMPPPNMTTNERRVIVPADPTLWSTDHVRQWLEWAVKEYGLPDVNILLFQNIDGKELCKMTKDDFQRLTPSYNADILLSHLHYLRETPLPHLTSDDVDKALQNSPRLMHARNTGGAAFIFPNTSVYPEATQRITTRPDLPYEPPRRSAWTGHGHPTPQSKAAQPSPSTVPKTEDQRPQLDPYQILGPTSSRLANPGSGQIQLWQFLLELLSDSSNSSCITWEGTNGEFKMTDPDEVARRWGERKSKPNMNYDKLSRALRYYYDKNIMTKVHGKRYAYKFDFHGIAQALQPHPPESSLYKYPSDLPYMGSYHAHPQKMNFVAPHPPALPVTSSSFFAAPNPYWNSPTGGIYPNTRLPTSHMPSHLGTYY

What follows are compounds tested against Transcriptional regulator ERG (Homo sapiens) (UniProt P11308) (assay: qHTS for Small Molecule Inhibitors of the ERG Ets/DNA interaction). Conditions: fluorescence polarization, His-ERG Ets domain / labelled DNA; FP activity, negative = inhibition: at 76.9 µM (top of the series).
Outline: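 His-tagged ERG Ets domain (1 uM in the protein solution; 300mM KCl, 50mM Tris-HCl, 1mM EDTA, 1mM DTT, pH 7.5) received compound, then a probe mix of 5 nM fluorescein-DNA and 100nM Texas-615-DNA. Fluorescence polarization was read for both dyes.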
Potency means the concentration at half of the fitted maximal effect.
Wherever FP activity, negative = inhibition is given: % of control where 0% means no effect.

**Q.** With `COc1ccc(S(=O)(=O)NCCNC(=O)N2CCOCC2)cc1` as the compound, how does the Potency read?
**A.** inconclusive: 2 µM [inhibitor, partial curve, poor fit]

**Q.** Which Potency does the source give for `O=C(NC1CCN(S(=O)(=O)c2cccc([N+](=O)[O-])c2)CC1)C1CCCCC1` here?
**A.** inconclusive: 0.316 µM [inhibitor, full curve, poor fit]

**Q.** For `COc1ccccc1NC(=O)Cn1c(=O)n(CCC(=O)NCC2CCCO2)c(=O)c2cc(OC)c(OC)cc21` (configuration not stated), which Potency is on record?
**A.** inconclusive: 100 µM [inhibitor, single point]

**Q.** `CCC(=O)Nc1ccc(S(=O)(=O)Nc2nccs2)cc1` was tested. Which Potency did it give?
**A.** inconclusive: 56.2 µM [inhibitor, partial curve, poor fit]

**Q.** `O=C(NC1CCCCC1)c1c[nH]c2ccc(S(=O)(=O)Nc3ccccc3F)cc2c1=O` was tested. Which “FP activity, negative = inhibition” value did it give?
**A.** inactive: 13.4%

**Q.** With `O=C1c2cccc3c(O)ccc(c23)C(=O)N1Cc1ccccc1` as the compound, how does the Potency read?
**A.** inconclusive: 39.8 µM [fluorescent, side channel, partial curve, poor fit]

**Q.** With `CC/C(=C/c1sc2ccc(C)cc2[n+]1CCCS(=O)(=O)[O-])SC` as the compound, how does the Potency read?
**A.** inconclusive: 28.2 µM [inhibitor, single point]

**Q.** With `C/C(=N\Nc1ccc(C#N)cc1[N+](=O)[O-])c1ccc(C)o1` as the compound, how does the Potency read?
**A.** inconclusive: 31.6 µM [inhibitor, partial curve, poor fit]

**Q.** For `Cc1ccc(C(=O)CN2C(=O)C(=O)N(Cc3ccccc3)C2=O)cc1`, which Potency is on record?
**A.** inconclusive: 50.1 µM [inhibitor, single point]

**Q.** For `COc1ccc(C(=O)NC2CCN(C(=S)Nc3cc(C)cc(C)c3)CC2)cc1`, which Potency is on record?
**A.** inconclusive: 11.2 µM [inhibitor, single point]

**Q.** With `N#C/C(=C\c1ccc(-c2ccc(F)cc2F)o1)c1nc2ccccc2[nH]1` as the compound, how does the Potency read?
**A.** inconclusive: 39.8 µM [fluorescent, side channel, partial curve, poor fit]

**Q.** How did the Potency turn out when `CCOc1cccc(CNc2ccc(O)cc2)c1OCc1ccccc1Cl` was run?
**A.** inconclusive: 39.8 µM [inhibitor, partial curve, poor fit]

**Q.** For `CCOc1c(Br)cc(/C=C2\N=C(C)OC2=O)cc1Br`, which “FP activity, negative = inhibition” value is on record?
**A.** inactive: 16.6%

**Q.** With `CCC(COC)NC(=O)CCc1nnc(Cc2c[nH]c3ccccc23)o1` (configuration not stated) as the compound, how does the “FP activity, negative = inhibition” value read?
**A.** inactive: -6.49%

**Q.** For `O=[N+]([O-])c1cccnc1Sc1ccccc1Cl`, which Potency is on record?
**A.** inconclusive: 25.1 µM [inhibitor, partial curve, poor fit]

**Q.** `CC1=C(C#N)C(=O)OC(C)(C)C1` was tested. Which Potency did it give?
**A.** inconclusive: 35.5 µM [fluorescent, partial curve, poor fit]

**Q.** How did the “FP activity, negative = inhibition” value turn out when `COCc1cc(C)nc2sc(C(=O)N3CCCCC3)c(N)c12` was run?
**A.** inactive: -4.84%

**Q.** `COc1ccc(S(=O)(=O)N2CCOCC2)cc1NC(=O)CSc1nnc2n1CCCCC2` was tested. Which Potency did it give?
**A.** inconclusive: 31.6 µM [inhibitor, single point]

**Q.** For `Cc1ccc(NC(=O)[C@@H](c2ccccc2)N2Cc3ccccc3C2=O)cc1F`, which Potency is on record?
**A.** inconclusive: 8.91 µM [quencher, side channel, partial curve, poor fit]

**Q.** `CC(=O)Nc1ccc(S(=O)(=O)NCCC(=O)OCC(=O)c2cc(C)ccc2C)cc1` was tested. Which Potency did it give?
**A.** inconclusive: 11.2 µM [inhibitor, partial curve, poor fit]

**Q.** How did the Potency turn out when `COCCCn1c(=S)[nH]c(C)c(C)c1=O` was run?
**A.** inconclusive: 31.6 µM [quencher, side channel, partial curve, poor fit]

**Q.** With `CCCCNc1cc(F)nc(N)n1` as the compound, how does the Potency read?
**A.** inconclusive: 44.7 µM [inhibitor, single point]

**Q.** `O=C(N/N=C/c1ccc(O)cc1)c1nc(-c2ccccc2)n(-c2ccccc2)n1` was tested. Which Potency did it give?
**A.** inconclusive: 11.2 µM [quencher, side channel, single point]

**Q.** Which Potency does the source give for `CN1CCc2c(sc3c2C(=O)NC(c2ccc(C(C)(C)C)cc2)N3)C1` (configuration not stated) here?
**A.** inconclusive: 28.2 µM [fluorescent, side channel, partial curve, poor fit]

**Q.** With `Oc1ccc(-c2csc(-c3c[nH]c4ccccc34)n2)c(O)c1` as the compound, how does the Potency read?
**A.** inconclusive: 5.62 µM [quencher, side channel, full curve, poor fit]

**Q.** How did the “FP activity, negative = inhibition” value turn out when `Cc1cc(C)n(-c2ccc(S(=O)(=O)N3CCOCC3)cc2[N+](=O)[O-])n1` was run?
**A.** inactive: -1.66%

**Q.** Which “FP activity, negative = inhibition” value does the source give for `CCOc1ccc(Br)cc1C(=S)N1CCCC1` here?
**A.** inactive: 8.24%

**Q.** How did the “FP activity, negative = inhibition” value turn out when `O=[N+]([O-])c1ccc(CS(=O)c2ccccc2)cc1` (configuration not stated) was run?
**A.** inactive: -17.8%

**Q.** How did the “FP activity, negative = inhibition” value turn out when `CCN1CCN(Cc2c(O)ccc3c2O/C(=C\C=C\c2ccccc2OC)C3=O)CC1` was run?
**A.** inactive: -0.0201%

**Q.** `CC(=O)NC(=S)Nc1sc2c(c1C(N)=O)CCC(C)C2` (configuration not stated) was tested. Which Potency did it give?
**A.** inconclusive: 11.2 µM [quencher, side channel, partial curve, poor fit]

**Q.** For `O=C(Cc1ccc(F)cc1)N/N=C/c1ccc(-c2ccc(Cl)c(C(=O)O)c2)o1`, which “FP activity, negative = inhibition” value is on record?
**A.** inactive: -1.54%

**Q.** With `O=C(CSc1ccccc1)NCc1ccc(F)cc1` as the compound, how does the Potency read?
**A.** inconclusive: 63.1 µM [inhibitor, single point]

**Q.** `COc1ccccc1NC(=O)/C(C#N)=C/c1ccncc1` was tested. Which “FP activity, negative = inhibition” value did it give?
**A.** inactive: 4.41%

**Q.** `COC(=O)C1C(=O)C2=C(CC1C)NC(=O)CC2c1ccc(F)cc1` (configuration not stated) was tested. Which Potency did it give?
**A.** inconclusive: 1 µM [quencher, side channel, full curve, poor fit]

**Q.** How did the “FP activity, negative = inhibition” value turn out when `Cc1ccc(Nc2nc(C(=O)N3CCC(C(=O)N4CCN(C)CC4)CC3)cs2)cc1` was run?
**A.** inactive: -4.3%

**Q.** For `CCCCOC(=O)c1ccc(N)cc1`, which Potency is on record?
**A.** inconclusive: 50.1 µM [inhibitor, single point]

**Q.** Which Potency does the source give for `Cc1ccc2nc3c(c(C(=O)OC4CCOC4=O)c2c1)CCCC3` (configuration not stated) here?
**A.** inconclusive: 11.2 µM [inhibitor, full curve, poor fit]

**Q.** How did the Potency turn out when `Cc1ccc2cccc(OCCCOc3ccccc3F)c2n1` was run?
**A.** inconclusive: 3.98 µM [inhibitor, partial curve, poor fit]

**Q.** How did the “FP activity, negative = inhibition” value turn out when `Clc1ccc(/C=N\Nc2ccccc2)cc1` was run?
**A.** inactive: 3.97%

**Q.** How did the “FP activity, negative = inhibition” value turn out when `CCN(CCn1cccn1)Cc1c(C(=O)N2CCCCCCC2)nc2ccc(Cl)cn12` was run?
**A.** inactive: 1.3%

**Q.** How did the “FP activity, negative = inhibition” value turn out when `S=c1[nH]nc(COc2ccccc2)n1/N=C/C=C/c1ccco1` was run?
**A.** inactive: -0.917%

**Q.** For `CS(=O)(=O)N(CC(=O)NCc1ccco1)c1ccc(Cl)cc1Cl`, which “FP activity, negative = inhibition” value is on record?
**A.** inactive: -6.12%

**Q.** For `COc1ccc(/C=N/Nc2ncnc3sc4c(c23)CCCC4)cc1O`, which Potency is on record?
**A.** inconclusive: 35.5 µM [quencher, side channel, single point]

**Q.** With `Cc1cnc(CNC(=O)CC2C(=O)NCCN2Cc2ccccc2C(F)(F)F)cn1` (configuration not stated) as the compound, how does the Potency read?
**A.** inconclusive: 25.1 µM [inhibitor, partial curve, poor fit]

**Q.** `COc1ccccc1N=NC1C(=O)N(C(N)=S)N=C1C` (configuration not stated) was tested. Which “FP activity, negative = inhibition” value did it give?
**A.** inactive: -9.73%

**Q.** How did the Potency turn out when `COc1ccc(-c2cn3cccnc3n2)cc1NC(=O)Nc1cc(C)ccc1C` was run?
**A.** inconclusive: 7.94 µM [quencher, side channel, full curve, poor fit]

**Q.** For `C#CCN1C(=O)S/C(=C/C=C/c2ccc(N(C)C)cc2)C1=O`, which Potency is on record?
**A.** inconclusive: 14.1 µM [fluorescent, side channel, partial curve]

**Q.** `N#C/C(=C(/O)c1ccc([N+](=O)[O-])cc1)c1nnc2n1CCCCC2` was tested. Which “FP activity, negative = inhibition” value did it give?
**A.** inactive: -1.47%

**Q.** `CCn1nccc1C(=O)Nc1nc2ccccc2n1CCN1CCCCC1` was tested. Which “FP activity, negative = inhibition” value did it give?
**A.** inactive: 3.02%

**Q.** `O=C(NC(c1ccccc1)C(Cl)Cl)c1ccccc1` (configuration not stated) was tested. Which Potency did it give?
**A.** inconclusive: 2.82 µM [inhibitor, full curve, poor fit]

**Q.** `C=CCOc1nc(-c2ccccc2Cl)nc2ccccc12` was tested. Which “FP activity, negative = inhibition” value did it give?
**A.** inactive: -0.662%

**Q.** With `COc1cccc(CN(C(=O)c2ccc(C(C)(C)C)cc2)C2CCS(=O)(=O)C2)c1` (configuration not stated) as the compound, how does the Potency read?
**A.** inconclusive: 31.6 µM [quencher, side channel, partial curve, poor fit]

**Q.** Which Potency does the source give for `Cc1ccc(C(C)C)c(OCC(=O)NNC(=O)C2CSC3(C)CCC(=O)N23)c1` (configuration not stated) here?
**A.** inconclusive: 2.24 µM [inhibitor, partial curve, poor fit]

**Q.** `CCOC(=O)C1C(=O)NC(SCC(N)=O)=C(C#N)C1c1ccccc1OCC` (configuration not stated) was tested. Which Potency did it give?
**A.** inconclusive: 35.5 µM [fluorescent, side channel, partial curve, poor fit]

**Q.** For `CN1CCOCCOCCOCCN(C)C1=S`, which Potency is on record?
**A.** inconclusive: 31.6 µM [inhibitor, single point]

**Q.** `CCCCSc1cc(=O)n(-c2ccccc2)nc1C(=O)OCC` was tested. Which Potency did it give?
**A.** inconclusive: 1.78 µM [inhibitor, partial curve, poor fit]

**Q.** `Cc1cccc(C)c1NC(=O)CNC(=O)c1ccc(N2CCCC2=O)cc1` was tested. Which “FP activity, negative = inhibition” value did it give?
**A.** inactive: 1.34%

**Q.** With `CCOC(=O)NN1C(=O)c2ccccc2NC1c1cccs1` (configuration not stated) as the compound, how does the Potency read?
**A.** active: 35.5 µM

**Q.** How did the Potency turn out when `O=C(Cn1cc2c(n1)CCCC2)NCc1ccccn1` was run?
**A.** inconclusive: 35.5 µM [inhibitor, single point]

**Q.** `Cn1c(C(C(=O)NCC2CCCO2)N(CCc2ccccc2)C(=O)Cn2nnc3ccccc32)nc2ccccc21` (configuration not stated) was tested. Which Potency did it give?
**A.** inconclusive: 25.1 µM [quencher, side channel, partial curve, poor fit]

**Q.** For `Clc1cccc(OCCCN2CCCC2)c1Cl`, which Potency is on record?
**A.** inconclusive: 7.94 µM [inhibitor, single point]

**Q.** For `CCN(CC)CCCn1c(C)cc2c(c1=O)C(c1cccc(Cl)c1)C(C#N)=C(N)O2` (configuration not stated), which “FP activity, negative = inhibition” value is on record?
**A.** inactive: 2.85%

**Q.** For `O=C(NCCCc1nc2ccccc2[nH]1)c1ccc(F)cc1`, which Potency is on record?
**A.** inconclusive: 11.2 µM [quencher, side channel, partial curve, poor fit]

**Q.** With `COc1ccc(Cc2nnc(Nc3ccccc3)s2)cc1Br` as the compound, how does the Potency read?
**A.** inconclusive: 3.55 µM [inhibitor, partial curve, poor fit]

**Q.** `OCCCC1CCCCN1Cc1nc(Cc2ccccc2Cl)no1` (configuration not stated) was tested. Which Potency did it give?
**A.** inconclusive: 39.8 µM [inhibitor, single point]

**Q.** How did the Potency turn out when `O=C(CC(c1ccccc1)c1cc(Cl)ccc1O)NCCCN1CCOCC1` (configuration not stated) was run?
**A.** inconclusive: 35.5 µM [inhibitor, single point]

**Q.** With `CCS(=O)(=O)n1nc(-c2ccco2)nc1N` as the compound, how does the Potency read?
**A.** inconclusive: 12.6 µM [fluorescent, side channel, partial curve, poor fit]
